Some of the results follow.
How the values were obtained:
Assay in all cases: glycan array binding signal (z-score within array); higher = stronger binding
Conditions in all cases: glycan notation: IUPAC condensed, linker removed
[1] = test system: Neu5Ac(a2-6)Gal(b1-4)GlcNAc(b1-2)Man(a1-3)[Neu5Ac(a2-6)Gal(b1-4)GlcNAc(b1-2)Man(a1-6)]Man(b1-4)GlcNAc(b1-4)GlcNAc
Outline: (§1)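 Arrays were curated from the Consortium for Functional Glycomics database, 3228 in total, and kept only where the protein sequence was available. Binding is expressed as a within-array Z-score. This score was averaged across arrays of the same protein sequence at different concentrations or buffers and across linkers, and negative values can be read as non-binding.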

[2] = test system: Neu5Ac(a2-6)Gal(b1-4)GlcNAc(b1-2)Man(a1-3)[Neu5Ac(a2-6)Gal(b1-4)GlcNAc(b1-2)Man(a1-6)]Man(b1-4)GlcNAc(b1-4)[Fuc(a1-6)]GlcNAc
Outline: as §1

[3] = test system: Neu5Ac(a2-6)Gal(b1-4)GlcNAc(b1-2)Man(a1-6)Man(b1-4)GlcNAc(b1-4)GlcNAc
Outline: as §1

[4] = test system: Neu5Ac(a2-6)Gal(b1-4)GlcNAc(b1-2)Man(a1-6)[Gal(b1-4)GlcNAc(b1-2)Man(a1-3)]Man(b1-4)GlcNAc(b1-4)GlcNAc
Outline: as §1

[5] = test system: Neu5Ac(a2-6)Gal(b1-4)GlcNAc(b1-2)Man(a1-6)[GlcNAc(b1-2)Man(a1-3)]Man(b1-4)GlcNAc(b1-4)GlcNAc
Outline: as §1

[6] = test system: Neu5Ac(a2-6)Gal(b1-4)GlcNAc(b1-2)Man(a1-6)[Man(a1-3)]Man(b1-4)GlcNAc(b1-4)GlcNAc
Outline: as §1

[7] = test system: Neu5Ac(a2-6)Gal(b1-4)GlcNAc(b1-2)Man
Outline: as §1

[8] = test system: Neu5Ac(a2-6)Gal(b1-4)GlcNAc(b1-2)[Neu5Ac(a2-6)Gal(b1-4)GlcNAc(b1-4)]Man(a1-3)[GlcNAc(b1-4)][Neu5Ac(a2-6)Gal(b1-4)GlcNAc(b1-2)[Neu5Ac(a2-6)Gal(b1-4)GlcNAc(b1-6)]Man(a1-6)]Man(b1-4)GlcNAc(b1-4)GlcNAc
Outline: as §1

[9] = test system: Neu5Ac(a2-6)Gal(b1-4)GlcNAc(b1-2)[Neu5Ac(a2-6)Gal(b1-4)GlcNAc(b1-4)]Man(a1-3)[GlcNAc(b1-4)][Neu5Ac(a2-6)Gal(b1-4)GlcNAc(b1-4)Man(a1-6)]Man(b1-4)GlcNAc(b1-4)GlcNAc
Outline: as §1

[10] = test system: Neu5Ac(a2-6)Gal(b1-4)GlcNAc(b1-2)[Neu5Ac(a2-6)Gal(b1-4)GlcNAc(b1-6)]Man(a1-6)[Neu5Ac(a2-6)Gal(b1-4)GlcNAc(b1-2)Man(a1-3)][GlcNAc(b1-4)]Man(b1-4)GlcNAc(b1-4)GlcNAc
Outline: as §1

[11] = test system: Neu5Ac(a2-6)Gal(b1-4)GlcNAc(b1-3)Gal(b1-3)GlcNAc
Outline: as §1

[12] = test system: Neu5Ac(a2-6)Gal(b1-4)GlcNAc(b1-3)Gal(b1-4)GlcNAc(b1-2)Man(a1-3)[Neu5Ac(a2-6)Gal(b1-4)GlcNAc(b1-3)Gal(b1-4)GlcNAc(b1-2)Man(a1-6)]GalNAc
Outline: as §1

[13] = test system: Neu5Ac(a2-6)Gal(b1-4)GlcNAc(b1-3)Gal(b1-4)GlcNAc(b1-3)Gal(b1-4)GlcNAc(b1-2)Man(a1-3)[Neu5Ac(a2-6)Gal(b1-4)GlcNAc(b1-3)Gal(b1-4)GlcNAc(b1-3)Gal(b1-4)GlcNAc(b1-2)Man(a1-6)]GalNAc
Outline: as §1

[14] = test system: Neu5Ac(a2-6)Gal(b1-4)GlcNAc(b1-3)Gal(b1-4)GlcNAc(b1-3)Gal(b1-4)GlcNAc
Outline: as §1

[15] = test system: Neu5Ac(a2-6)Gal(b1-4)GlcNAc(b1-3)Gal(b1-4)GlcNAc(b1-3)GalNAc
Outline: as §1

[16] = test system: Neu5Ac(a2-6)Gal(b1-4)GlcNAc(b1-3)Gal(b1-4)GlcNAc(b1-3)[Neu5Ac(a2-6)Gal(b1-4)GlcNAc(b1-3)Gal(b1-4)GlcNAc(b1-6)]GalNAc
Outline: as §1

[17] = test system: Neu5Ac(a2-6)Gal(b1-4)GlcNAc(b1-3)Gal(b1-4)GlcNAc(b1-6)[Gal(b1-3)]GalNAc
Outline: as §1

[18] = test system: Neu5Ac(a2-6)Gal(b1-4)GlcNAc(b1-3)Gal(b1-4)GlcNAc
Outline: as §1

[19] = test system: Neu5Ac(a2-6)Gal(b1-4)GlcNAc(b1-3)Gal(b1-4)[Fuc(a1-3)]GlcNAc(b1-3)Gal(b1-4)[Fuc(a1-3)]GlcNAc
Outline: as §1

[20] = test system: Neu5Ac(a2-6)Gal(b1-4)GlcNAc(b1-3)GalNAc
Outline: as §1

[21] = test system: Neu5Ac(a2-6)Gal(b1-4)GlcNAc(b1-3)[Neu5Ac(a2-6)Gal(b1-4)GlcNAc(b1-6)]GalNAc
Outline: as §1

[22] = test system: Neu5Ac(a2-6)Gal(b1-4)GlcNAc(b1-6)GalNAc
Outline: as §1

[23] = test system: Neu5Ac(a2-6)Gal(b1-4)GlcNAc(b1-6)[Gal(b1-3)GlcNAc(b1-3)]Gal(b1-4)Glc
Outline: as §1

[24] = test system: Neu5Ac(a2-6)Gal(b1-4)GlcNAc(b1-6)[Gal(b1-3)]GalNAc
Outline: as §1

[25] = test system: Neu5Ac(a2-6)Gal(b1-4)GlcNAc6S
Outline: as §1

[26] = test system: Neu5Ac(a2-6)Gal(b1-4)GlcNAc
Outline: as §1

[27] = test system: Neu5Ac(a2-6)Gal(b1-4)Glc
Outline: as §1

[28] = test system: Neu5Ac(a2-6)GalNAc(b1-4)GlcNAc6S
Outline: as §1

[29] = test system: Neu5Ac(a2-6)GalNAc(b1-4)GlcNAc
Outline: as §1

[30] = test system: Neu5Ac(a2-6)GalNAc
Outline: as §1

[31] = test system: Neu5Ac(a2-6)Gal
Outline: as §1

[32] = test system: Neu5Ac(a2-6)GlcNAc(b1-4)GlcNAc(b1-4)GlcNAc
Outline: as §1

[33] = test system: Neu5Ac(a2-6)GlcNAc(b1-4)GlcNAc
Outline: as §1

[34] = test system: Neu5Ac(a2-8)Neu5Ac(a2-3)Gal(b1-3)GalNAc(b1-4)[Neu5Ac(a2-3)]Gal(b1-4)Glc
Outline: as §1

[35] = test system: Neu5Ac(a2-8)Neu5Ac(a2-3)Gal(b1-3)GalNAc(b1-4)[Neu5Ac(a2-8)Neu5Ac(a2-3)]Gal(b1-4)Glc
Outline: as §1

[36] = test system: Neu5Ac(a2-8)Neu5Ac(a2-3)Gal(b1-4)GlcNAc
Outline: as §1

[37] = test system: Neu5Ac(a2-8)Neu5Ac(a2-3)Gal(b1-4)Glc
Outline: as §1

[38] = test system: Neu5Ac(a2-8)Neu5Ac(a2-3)[Gal(b1-3)GalNAc(b1-4)]Gal(b1-4)Glc
Outline: as §1

[39] = test system: Neu5Ac(a2-8)Neu5Ac(a2-3)[GalNAc(b1-4)]Gal(b1-4)Glc
Outline: as §1

[40] = test system: Neu5Ac(a2-8)Neu5Ac(a2-8)Neu5Ac(a2-3)Gal(b1-4)Glc
Outline: as §1

[41] = test system: Neu5Ac(a2-8)Neu5Ac(a2-8)Neu5Ac(a2-3)[Gal(b1-3)GalNAc(b1-4)]Gal(b1-4)Glc
Outline: as §1

[42] = test system: Neu5Ac(a2-8)Neu5Ac(a2-8)Neu5Ac(a2-3)[GalNAc(b1-4)]Gal(b1-4)Glc
Outline: as §1

[43] = test system: Neu5Ac(a2-8)Neu5Ac(a2-8)Neu5Ac(a2-8)Neu5Ac(a2-3)[GalNAc(b1-4)]Gal(b1-4)Glc
Outline: as §1

[44] = test system: Neu5Ac(a2-8)Neu5Ac(a2-8)Neu5Ac
Outline: as §1

[45] = test system: Neu5Ac(a2-8)Neu5Ac
Outline: as §1

[46] = test system: Neu5Ac(a2-8)Neu5Gc(a2-3)Gal(b1-4)GlcNAc
Outline: as §1

[47] = test system: Neu5Ac(b2-6)Gal(b1-4)GlcNAc
Outline: as §1

[48] = test system: Neu5Ac(b2-6)GalNAc
Outline: as §1

[49] = test system: Neu5Ac9Ac(a2-3)Gal(b1-3)GlcNAc
Outline: as §1

[50] = test system: Neu5Ac9Ac(a2-3)Gal(b1-4)GlcNAc
Outline: as §1

[51] = test system: Neu5Ac9Ac(a2-6)Gal(b1-4)GlcNAc
Outline: as §1

[52] = test system: Neu5Gc(a2-3)Gal(b1-3)GlcNAc
Outline: as §1

[53] = test system: Neu5Gc(a2-3)Gal(b1-3)[Fuc(a1-4)]GlcNAc
Outline: as §1

[54] = test system: Neu5Gc(a2-3)Gal(b1-4)GlcNAc(b1-3)Gal(b1-4)GlcNAc(b1-2)Man(a1-3)[Neu5Gc(a2-3)Gal(b1-4)GlcNAc(b1-3)Gal(b1-4)GlcNAc(b1-2)Man(a1-6)]Man(b1-4)GlcNAc(b1-4)GlcNAc
Outline: as §1

[55] = test system: Neu5Gc(a2-3)Gal(b1-4)GlcNAc
Outline: as §1

[56] = test system: Neu5Gc(a2-3)Gal(b1-4)Glc
Outline: as §1

[57] = test system: Neu5Gc(a2-3)Gal(b1-4)[Fuc(a1-3)]GlcNAc
Outline: as §1

[58] = test system: Neu5Gc(a2-6)Gal(b1-4)GlcNAc
Outline: as §1

[59] = test system: Neu5Gc(a2-6)GalNAc
Outline: as §1

[60] = test system: Neu5Gc(a2-8)Neu5Ac(a2-3)Gal(b1-4)GlcNAc
Outline: as §1

[61] = test system: Neu5Gc(a2-8)Neu5Gc(a2-3)Gal(b1-4)GlcNAc(b1-3)Gal(b1-4)GlcNAc
Outline: as §1

[62] = test system: Neu5Gc(a2-8)Neu5Gc(a2-3)Gal(b1-4)GlcNAc
Outline: as §1

[63] = test system: Neu5Gc(a2-8)Neu5Gc(a2-6)Gal(b1-4)GlcNAc
Outline: as §1

[64] = test system: Neu5Gc(b2-6)Gal(b1-4)GlcNAc
Outline: as §1

MpAFP RI GFP (Marinomonas primoryensis)
glycan array binding signal (z-score) [1]: 0.414
glycan array binding signal (z-score) [2]: 2.72
glycan array binding signal (z-score) [3]: -0.413
glycan array binding signal (z-score) [4]: -0.456
glycan array binding signal (z-score) [5]: -0.058
glycan array binding signal (z-score) [6]: -0.424
glycan array binding signal (z-score) [7]: -0.312
glycan array binding signal (z-score) [8]: -0.411
glycan array binding signal (z-score) [9]: 0.092
glycan array binding signal (z-score) [10]: -0.289
glycan array binding signal (z-score) [11]: -0.701
glycan array binding signal (z-score) [12]: -0.261
glycan array binding signal (z-score) [13]: 3.43
glycan array binding signal (z-score) [14]: 1.44
glycan array binding signal (z-score) [15]: -0.467
glycan array binding signal (z-score) [16]: 1.36
glycan array binding signal (z-score) [17]: -0.466
glycan array binding signal (z-score) [18]: -0.758
glycan array binding signal (z-score) [19]: -0.163
glycan array binding signal (z-score) [20]: -0.218
glycan array binding signal (z-score) [21]: -0.593
glycan array binding signal (z-score) [22]: -0.176
glycan array binding signal (z-score) [23]: -0.159
glycan array binding signal (z-score) [24]: -0.306
glycan array binding signal (z-score) [25]: -0.569
glycan array binding signal (z-score) [26]: -0.671
glycan array binding signal (z-score) [27]: -0.481
glycan array binding signal (z-score) [28]: -0.16
glycan array binding signal (z-score) [29]: -0.698
glycan array binding signal (z-score) [30]: -0.357
glycan array binding signal (z-score) [31]: -0.546
glycan array binding signal (z-score) [32]: 0.806
glycan array binding signal (z-score) [33]: -0.268
glycan array binding signal (z-score) [34]: 0.528
glycan array binding signal (z-score) [35]: 0.63
glycan array binding signal (z-score) [36]: -0.781
glycan array binding signal (z-score) [37]: -0.688
glycan array binding signal (z-score) [38]: 0.173
glycan array binding signal (z-score) [39]: -0.546
glycan array binding signal (z-score) [40]: 0.005
glycan array binding signal (z-score) [41]: 0.526
glycan array binding signal (z-score) [42]: -0.628
glycan array binding signal (z-score) [43]: -0.475
glycan array binding signal (z-score) [44]: -0.223
glycan array binding signal (z-score) [45]: -0.217
glycan array binding signal (z-score) [46]: -0.674
glycan array binding signal (z-score) [47]: -0.925
glycan array binding signal (z-score) [48]: -0.881
glycan array binding signal (z-score) [49]: 0.228
glycan array binding signal (z-score) [50]: -0.74
glycan array binding signal (z-score) [51]: -0.772
glycan array binding signal (z-score) [52]: -0.553
glycan array binding signal (z-score) [53]: -0.561
glycan array binding signal (z-score) [54]: 1.18
glycan array binding signal (z-score) [55]: -0.683
glycan array binding signal (z-score) [56]: 0.924
glycan array binding signal (z-score) [57]: 0.384
glycan array binding signal (z-score) [58]: -0.117
glycan array binding signal (z-score) [59]: 1.39
glycan array binding signal (z-score) [60]: -0.659
glycan array binding signal (z-score) [61]: -0.671
glycan array binding signal (z-score) [62]: -0.756
glycan array binding signal (z-score) [63]: -0.701
glycan array binding signal (z-score) [64]: -0.38
